# Reference: US20220340682A1 (Sanofi, published 2022)
# B1: antibody MAb2 (antibody, mouse IgG1, V domains shown)
# VH: EVQLQESGGVLVKPGGSLKLSCAASGFVFSSYDMSWVRQTPEKRLEWVAYISSGGGITYFPDTVQGRFTVSRDNAKNTLYLQMNSLKSEDTAIYYCAAHYFGSSGPFAYWGQGTLVTVSA
# VL: DIQMTQSPASLSASVGETVTITCRASENIFSYLAWYQQKQGKSPQLLVYNTKTLAEGVPSRFSGSGSGTQFSLKINSLQPEDFGSYYCQHHYGTPFTFGSGTKLEIK
# notes: Murine IgG1, kappa; Rows are tied to the label as printed
# B2: antibody MAb5 (antibody, IgG1, V domains shown)
# VH: ELQLVESGGVLVKPGGSLKLSCAASGFAFSSYDMSWVRQTPEKRLEWVTYINSGGGITYYPDTVKGRFTISRDNARNTLYLQMSSLKSEDTAIYYCTAHYFGSSGPFAYWGQGTLVTVSA
# VL: B1 VL with F30Y, T51A, A55T
# notes: Murine monoclonal from hybridoma, IgG1, kappa
# B3: antibody MAb4 (antibody, IgG1, V domains shown)
# VH: EVQLVESGGGLVKPGGSLKLSCAASGFTFSSYDMSWVRQTPEKRLEWVAFISSYGGRTYYADTVKGRFTISRDNAKNTLYLQMSSLKSEDTAMFYCAAHYFGTSGPFAYWGQGTLVTVSA
# VL: B1 VL with F30Y, L33F, T51A, T53I, S85T, T94I, I106L
# notes: as for B2
# B4: antibody MAb1 (antibody, IgG1, V domains shown)
# VH: EVMLVESGGGLVKPGGSLKLSCAASGFTFSSYAMSWVRQTPEKRLEWVATISSGGSYIYYLDSVKGRFTISRDNAKNTLYLQMSSLRSEDTAMYYCARPAYYGNPAMDYWGQGTSVTVSS
# VL: DILMTQSQKFMSTSVGDRVSVTCKASQNVGTNVAWYQQKPGQSPKPLIYSASYRYSGVPDRFTGSGSGTDFTLTISNVQSEDLAEYFCQQYNSYPLYTFGGGTKLEIK
# B5: antibody MAb3 (antibody, IgG1, V domains shown)
# VH: EVKLVESGGGLVKPGGSLTLPCAASGFTFSRYAMSWVRQTPEKRLEWVASISSGGDTYYPDSVKGRFTVSRDNARNILFLQMSSLRSEDTGMYYCARVNYYDSSFLDWWGQGTTLTVSS
# VL: B4 VL with L3V, K9R, S14L, V15E, P46A, S93N
# notes: as for B2
# Biological target: cCEACAM5_A1-B1_143-320 (Macaca fascicularis)
# Assay: ELISA on coated recombinant CEACAM5 protein or domain, anti-mouse IgG-HRP, OD 450 nm
row,binding,Binder
1,no binding,B1
2,no binding,B2
3,no binding,B3
4,no binding,B4
5,no binding,B5

# Residue numbers refer to the chain shown, from its start. No constants are given. Whether binding was seen depends on the method and setting.
